Data as given in PubChem BioAssay AID1259308 (NCATS, 2017).

Assay: 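Knock-downs that increase output of a recombinant reporter protein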 (primary screen)
Cells: human HEK293 embryonic kidney cells stably expressing firefly luciferase (HEK-CMV-Luc2-Hygro)
Reagent: single siRNA against human genes, 0.8 pmol siRNA per well
Duration: 72 h
Detection: 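Reporter luminescence and viable-cell signal on separate replicate plates, given as percent of non-targeting control and median/MAD z-scores, plus per-cell luciferase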
Scale: total luciferase, z-score and total luciferase, % of control: higher = more reporter protein produced; luciferase per cell, z-score: higher = more reporter output per viable cell; viable cells, % of control: higher = more viable cells
Call rule: 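An siRNA counts as active if its total luciferase robust z-score exceeds 3; genes with two or more such siRNAs out of three were retested with fresh siRNAs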
Meaning of the calls: active = raised luciferase; inactive = no rise
Shown is one part, drawn at random, of about 59,000 deposited reagents. Of all reagents, about 1,510 (2.6%) got an active call. 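Calls use total luciferase alone and ignore viability, so some active siRNAs may act by altering cell number.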 The numbers tell different reagents against one gene apart.

| gene knocked down | reagent | total luciferase, z-score | total luciferase, % of control | luciferase per cell, z-score | viable cells, % of control | Call |
| --- | --- | --- | --- | --- | --- | --- |
| KLF10 (GeneID 7071) | 1 | 2.93 | 140 | 2.71 | 76.8 | inactive |
| KLF10 (GeneID 7071) | 2 | 0.191 | 85.7 | -0.265 | 103 | inactive |
| KLF10 (GeneID 7071) | 3 | -0.897 | 64 | -1.32 | 101 | inactive |
| CYP4A11 (GeneID 1579) | 1 | -0.993 | 62.1 | -0.582 | 80.9 | inactive |
| CYP4A11 (GeneID 1579) | 2 | -2.19 | 38.4 | -1.03 | 56.3 | inactive |
| CYP4A11 (GeneID 1579) | 3 | -2.84 | 25.4 | -3.82 | 77.6 | inactive |
| TRIM16 (GeneID 10626) | 1 | 0.14 | 84.7 | 0.349 | 86.3 | inactive |
| TRIM16 (GeneID 10626) | 2 | 0.635 | 94.5 | 0.482 | 93 | inactive |
| TRIM16 (GeneID 10626) | 3 | -0.121 | 79.5 | -0.0145 | 89.2 | inactive |
| FBXL7 (GeneID 23194) | 1 | 0.0587 | 83.1 | -0.117 | 95.7 | inactive |
| FBXL7 (GeneID 23194) | 2 | -0.122 | 79.5 | 0.0683 | 87.2 | inactive |
| FBXL7 (GeneID 23194) | 3 | -0.0444 | 81 | 0.806 | 73.2 | inactive |
| CFAP161 (GeneID 161502) | 1 | -0.815 | 65.7 | -0.439 | 82.4 | inactive |
| CFAP161 (GeneID 161502) | 2 | 0.391 | 89.7 | 0.759 | 82 | inactive |
| CFAP161 (GeneID 161502) | 3 | 1.45 | 111 | 2.01 | 73 | inactive |
| TMEM181 (GeneID 57583) | 1 | -0.0598 | 80.7 | 1.18 | 66.1 | inactive |
| TMEM181 (GeneID 57583) | 2 | -0.523 | 71.5 | -0.904 | 101 | inactive |
| TMEM181 (GeneID 57583) | 3 | -0.0595 | 80.7 | -0.179 | 94.5 | inactive |
| SPACA3 (GeneID 124912) | 1 | 2.66 | 135 | 2.39 | 80.2 | inactive |
| SPACA3 (GeneID 124912) | 2 | -0.0213 | 81.5 | -0.239 | 96.9 | inactive |
| SPACA3 (GeneID 124912) | 3 | -0.415 | 73.6 | 0.64 | 69.5 | inactive |
| BBX (GeneID 56987) | 1 | 2.09 | 124 | 1.32 | 97.6 | inactive |
| BBX (GeneID 56987) | 2 | -0.295 | 76 | -0.134 | 88 | inactive |
| BBX (GeneID 56987) | 3 | -0.277 | 76.4 | 0.705 | 70.9 | inactive |
| SDR42E1 (GeneID 93517) | 1 | -0.794 | 66.1 | -0.731 | 89.6 | inactive |
| SDR42E1 (GeneID 93517) | 2 | -0.744 | 67.1 | -0.927 | 95.7 | inactive |
| SDR42E1 (GeneID 93517) | 3 | -0.965 | 62.7 | -0.852 | 87.7 | inactive |
| ANKRD35 (GeneID 148741) | 1 | -0.106 | 79.8 | 0.849 | 71.3 | inactive |
| ANKRD35 (GeneID 148741) | 2 | -1.19 | 58.3 | -0.871 | 81.9 | inactive |
| ANKRD35 (GeneID 148741) | 3 | -0.193 | 78.1 | -0.811 | 108 | inactive |

10 successive entries already listed, for reference:
| gene knocked down | reagent | total luciferase, z-score | total luciferase, % of control | luciferase per cell, z-score | viable cells, % of control | Call |
| --- | --- | --- | --- | --- | --- | --- |
| TMEM181 (GeneID 57583) | 3 | -0.0595 | 80.7 | -0.179 | 94.5 | inactive |
| SPACA3 (GeneID 124912) | 1 | 2.66 | 135 | 2.39 | 80.2 | inactive |
| SPACA3 (GeneID 124912) | 2 | -0.0213 | 81.5 | -0.239 | 96.9 | inactive |
| SPACA3 (GeneID 124912) | 3 | -0.415 | 73.6 | 0.64 | 69.5 | inactive |
| BBX (GeneID 56987) | 1 | 2.09 | 124 | 1.32 | 97.6 | inactive |
| BBX (GeneID 56987) | 2 | -0.295 | 76 | -0.134 | 88 | inactive |
| BBX (GeneID 56987) | 3 | -0.277 | 76.4 | 0.705 | 70.9 | inactive |
| SDR42E1 (GeneID 93517) | 1 | -0.794 | 66.1 | -0.731 | 89.6 | inactive |
| SDR42E1 (GeneID 93517) | 2 | -0.744 | 67.1 | -0.927 | 95.7 | inactive |
| SDR42E1 (GeneID 93517) | 3 | -0.965 | 62.7 | -0.852 | 87.7 | inactive |

More records follow:
| gene knocked down | reagent | total luciferase, z-score | total luciferase, % of control | luciferase per cell, z-score | viable cells, % of control | Call |
| --- | --- | --- | --- | --- | --- | --- |
| SLC39A10 (GeneID 57181) | 1 | -0.823 | 65.5 | -0.185 | 76.9 | inactive |
| SLC39A10 (GeneID 57181) | 2 | 1.79 | 117 | 1.32 | 92.8 | inactive |
| SLC39A10 (GeneID 57181) | 3 | 0.127 | 84.4 | -0.0248 | 94.9 | inactive |
| DPYS (GeneID 1807) | 1 | -0.776 | 66.5 | -0.727 | 89.9 | inactive |
| DPYS (GeneID 1807) | 2 | 0.0791 | 83.5 | -0.469 | 106 | inactive |
| DPYS (GeneID 1807) | 3 | 0.248 | 86.8 | 0.218 | 91.6 | inactive |
| SHARPIN (GeneID 81858) | 1 | 0.893 | 99.7 | 0.813 | 89.9 | inactive |
| SHARPIN (GeneID 81858) | 2 | -0.299 | 75.9 | -0.145 | 88.2 | inactive |
| SHARPIN (GeneID 81858) | 3 | 0.761 | 97 | 0.204 | 103 | inactive |
| LRBA (GeneID 987) | 1 | 2.06 | 123 | 1.7 | 87.8 | inactive |
| LRBA (GeneID 987) | 2 | -0.403 | 73.9 | -0.551 | 95.4 | inactive |
| LRBA (GeneID 987) | 3 | 0.125 | 84.4 | -0.132 | 97.6 | inactive |
| TEX19 (GeneID 400629) | 1 | -0.519 | 71.6 | 0.258 | 74.7 | inactive |
| TEX19 (GeneID 400629) | 2 | 0.986 | 101 | 0.878 | 90 | inactive |
| TEX19 (GeneID 400629) | 3 | -1.1 | 60 | -0.862 | 84.2 | inactive |
| STARD4 (GeneID 134429) | 1 | -1.43 | 53.4 | -1.21 | 82.1 | inactive |
| STARD4 (GeneID 134429) | 2 | -1.17 | 58.5 | -1.01 | 85.4 | inactive |
| STARD4 (GeneID 134429) | 3 | -0.29 | 76.1 | -0.4 | 94.5 | inactive |
| EEF1G (GeneID 1937) | 1 | 0.276 | 87.4 | 0.257 | 91.3 | inactive |
| EEF1G (GeneID 1937) | 2 | -0.612 | 69.7 | -0.907 | 98.9 | inactive |
| EEF1G (GeneID 1937) | 3 | 1.41 | 110 | 1.2 | 89.5 | inactive |
| DENND6A (GeneID 201627) | 1 | 0.522 | 92.3 | 0.095 | 101 | inactive |
| DENND6A (GeneID 201627) | 2 | 1.18 | 105 | 2.49 | 61.1 | inactive |
| DENND6A (GeneID 201627) | 3 | 0.986 | 101 | 1.24 | 81.8 | inactive |
| CCT8 (GeneID 10694) | 1 | 1.86 | 119 | 1.55 | 88.4 | inactive |
| CCT8 (GeneID 10694) | 2 | 1.66 | 115 | 1.46 | 87.4 | inactive |
| CCT8 (GeneID 10694) | 3 | 0.879 | 99.4 | 0.987 | 85.6 | inactive |
| ARHGAP1 (GeneID 392) | 1 | -1.72 | 47.7 | -1.82 | 86.1 | inactive |
| ARHGAP1 (GeneID 392) | 2 | -0.445 | 73 | -0.969 | 105 | inactive |
| ARHGAP1 (GeneID 392) | 3 | 4.01 | 162 | 2.87 | 84.8 | active |
| H2BC12 (GeneID 85236) | 1 | -0.57 | 70.5 | -0.504 | 90 | inactive |
| H2BC12 (GeneID 85236) | 2 | 0.00397 | 82 | -0.354 | 101 | inactive |
| H2BC12 (GeneID 85236) | 3 | 0.111 | 84.1 | 0.834 | 75.4 | inactive |
| ALDH1A3 (GeneID 220) | 1 | 0.644 | 94.7 | 1.16 | 78.1 | inactive |
| ALDH1A3 (GeneID 220) | 2 | 1.43 | 110 | 1.24 | 89.1 | inactive |
| ALDH1A3 (GeneID 220) | 3 | -0.724 | 67.5 | -0.738 | 91.6 | inactive |
| MMUT (GeneID 4594) | 1 | -0.806 | 65.8 | -1.3 | 104 | inactive |
| MMUT (GeneID 4594) | 2 | -0.69 | 68.2 | -1.25 | 106 | inactive |
| MMUT (GeneID 4594) | 3 | -0.677 | 68.4 | -0.848 | 95.6 | inactive |
| TCP11L1 (GeneID 55346) | 1 | 0.175 | 85.4 | -0.114 | 98.3 | inactive |
| TCP11L1 (GeneID 55346) | 2 | -0.614 | 69.7 | -0.849 | 97.4 | inactive |
| TCP11L1 (GeneID 55346) | 3 | -0.126 | 79.4 | -0.0506 | 89.9 | inactive |
| ZNF362 (GeneID 149076) | 1 | -0.613 | 69.7 | -0.609 | 91.4 | inactive |
| ZNF362 (GeneID 149076) | 2 | -0.378 | 74.4 | 0.00611 | 83 | inactive |
| ZNF362 (GeneID 149076) | 3 | 0.246 | 86.8 | 0.596 | 82.9 | inactive |
